# Some of the results follow.
# Amino acid sequences for entries named in this document (tags omitted). A change or cut given only in a name is not applied to a line headed by its entry.
# UniProt P33552, whole entry, looked up: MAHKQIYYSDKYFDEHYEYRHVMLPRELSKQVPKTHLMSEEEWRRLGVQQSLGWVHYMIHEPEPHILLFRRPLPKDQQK
# UniProt Q15846: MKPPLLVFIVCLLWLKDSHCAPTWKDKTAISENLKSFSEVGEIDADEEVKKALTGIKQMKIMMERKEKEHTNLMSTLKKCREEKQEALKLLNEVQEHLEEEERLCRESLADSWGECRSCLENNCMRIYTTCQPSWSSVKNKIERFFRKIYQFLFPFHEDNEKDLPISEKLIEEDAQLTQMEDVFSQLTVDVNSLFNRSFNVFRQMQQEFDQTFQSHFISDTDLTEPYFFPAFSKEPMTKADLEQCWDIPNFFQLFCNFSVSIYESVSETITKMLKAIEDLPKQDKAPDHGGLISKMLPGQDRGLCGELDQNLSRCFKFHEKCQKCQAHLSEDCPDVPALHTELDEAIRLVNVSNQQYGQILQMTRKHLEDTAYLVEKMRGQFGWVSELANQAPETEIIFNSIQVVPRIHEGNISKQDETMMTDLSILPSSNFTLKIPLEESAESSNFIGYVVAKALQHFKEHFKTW
# UniProt Q9Y3D0: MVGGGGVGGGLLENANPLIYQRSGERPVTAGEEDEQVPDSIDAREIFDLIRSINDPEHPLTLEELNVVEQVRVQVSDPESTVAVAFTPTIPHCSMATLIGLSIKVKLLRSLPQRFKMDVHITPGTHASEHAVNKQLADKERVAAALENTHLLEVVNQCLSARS
# UniProt Q8WVB6, whole entry, looked up: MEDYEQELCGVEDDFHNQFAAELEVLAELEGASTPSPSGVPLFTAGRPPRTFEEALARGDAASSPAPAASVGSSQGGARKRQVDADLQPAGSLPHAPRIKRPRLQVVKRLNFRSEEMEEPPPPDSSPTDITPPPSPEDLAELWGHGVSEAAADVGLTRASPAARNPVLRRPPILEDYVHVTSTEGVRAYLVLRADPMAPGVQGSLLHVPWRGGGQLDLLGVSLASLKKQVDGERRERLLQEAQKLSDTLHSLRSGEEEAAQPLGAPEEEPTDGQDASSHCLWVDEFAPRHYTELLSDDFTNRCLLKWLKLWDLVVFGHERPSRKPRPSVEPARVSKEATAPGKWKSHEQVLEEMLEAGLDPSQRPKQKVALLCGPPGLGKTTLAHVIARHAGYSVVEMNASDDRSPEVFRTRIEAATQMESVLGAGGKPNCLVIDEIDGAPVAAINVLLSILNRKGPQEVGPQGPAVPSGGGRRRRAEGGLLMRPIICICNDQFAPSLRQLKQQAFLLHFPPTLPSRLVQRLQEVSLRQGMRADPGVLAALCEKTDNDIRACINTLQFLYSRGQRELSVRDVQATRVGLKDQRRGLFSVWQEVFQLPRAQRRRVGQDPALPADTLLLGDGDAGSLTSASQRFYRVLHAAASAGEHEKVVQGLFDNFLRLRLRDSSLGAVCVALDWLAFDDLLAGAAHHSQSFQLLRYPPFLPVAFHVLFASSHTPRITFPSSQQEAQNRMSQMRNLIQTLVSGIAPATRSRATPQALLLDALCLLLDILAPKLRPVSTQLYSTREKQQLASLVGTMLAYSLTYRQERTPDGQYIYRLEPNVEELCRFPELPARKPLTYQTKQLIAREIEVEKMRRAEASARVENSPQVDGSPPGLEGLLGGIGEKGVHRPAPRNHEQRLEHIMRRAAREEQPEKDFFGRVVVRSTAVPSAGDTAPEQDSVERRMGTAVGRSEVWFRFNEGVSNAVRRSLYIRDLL
# UniProt Q99967: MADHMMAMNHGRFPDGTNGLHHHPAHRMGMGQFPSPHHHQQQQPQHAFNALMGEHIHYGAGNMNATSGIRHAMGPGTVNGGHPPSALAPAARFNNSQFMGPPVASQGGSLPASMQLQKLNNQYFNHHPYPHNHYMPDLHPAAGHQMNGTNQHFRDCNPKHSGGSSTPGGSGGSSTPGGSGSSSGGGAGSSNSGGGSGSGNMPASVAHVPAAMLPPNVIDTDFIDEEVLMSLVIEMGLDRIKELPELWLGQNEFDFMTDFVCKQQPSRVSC
# UniProt Q9Y4C5: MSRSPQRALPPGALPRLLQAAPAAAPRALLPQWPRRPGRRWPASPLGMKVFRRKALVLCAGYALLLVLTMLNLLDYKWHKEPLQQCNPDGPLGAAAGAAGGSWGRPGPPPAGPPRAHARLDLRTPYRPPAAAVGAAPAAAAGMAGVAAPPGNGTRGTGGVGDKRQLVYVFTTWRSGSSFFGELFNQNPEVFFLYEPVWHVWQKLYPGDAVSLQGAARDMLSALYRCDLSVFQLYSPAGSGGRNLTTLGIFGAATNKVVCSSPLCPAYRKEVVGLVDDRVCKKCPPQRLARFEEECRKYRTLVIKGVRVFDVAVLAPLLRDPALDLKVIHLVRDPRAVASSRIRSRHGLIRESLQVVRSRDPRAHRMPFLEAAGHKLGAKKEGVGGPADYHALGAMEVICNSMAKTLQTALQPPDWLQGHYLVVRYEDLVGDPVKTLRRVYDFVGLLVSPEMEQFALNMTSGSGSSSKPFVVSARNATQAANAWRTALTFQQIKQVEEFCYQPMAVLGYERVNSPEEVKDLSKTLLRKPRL
# UniProt Q9P2E5: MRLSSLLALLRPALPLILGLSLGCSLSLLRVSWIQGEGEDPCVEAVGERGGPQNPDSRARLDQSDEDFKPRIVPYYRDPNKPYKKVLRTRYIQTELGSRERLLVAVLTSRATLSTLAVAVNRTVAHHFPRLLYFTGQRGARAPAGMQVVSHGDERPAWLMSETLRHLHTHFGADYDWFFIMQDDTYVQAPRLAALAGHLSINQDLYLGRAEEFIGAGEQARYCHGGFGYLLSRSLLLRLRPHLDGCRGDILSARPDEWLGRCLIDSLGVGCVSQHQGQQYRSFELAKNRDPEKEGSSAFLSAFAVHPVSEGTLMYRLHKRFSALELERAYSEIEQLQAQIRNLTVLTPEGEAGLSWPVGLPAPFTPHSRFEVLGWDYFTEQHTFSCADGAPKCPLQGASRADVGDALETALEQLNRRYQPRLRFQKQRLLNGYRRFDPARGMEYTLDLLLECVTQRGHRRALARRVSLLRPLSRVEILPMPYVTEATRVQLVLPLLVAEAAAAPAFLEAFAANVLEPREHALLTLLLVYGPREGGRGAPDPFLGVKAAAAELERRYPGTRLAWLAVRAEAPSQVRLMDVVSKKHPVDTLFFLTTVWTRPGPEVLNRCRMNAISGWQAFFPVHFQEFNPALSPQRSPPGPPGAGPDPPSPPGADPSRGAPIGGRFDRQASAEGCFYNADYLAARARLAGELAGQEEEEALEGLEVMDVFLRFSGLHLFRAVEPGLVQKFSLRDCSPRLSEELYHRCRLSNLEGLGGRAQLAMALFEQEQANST
# UniProt P62633: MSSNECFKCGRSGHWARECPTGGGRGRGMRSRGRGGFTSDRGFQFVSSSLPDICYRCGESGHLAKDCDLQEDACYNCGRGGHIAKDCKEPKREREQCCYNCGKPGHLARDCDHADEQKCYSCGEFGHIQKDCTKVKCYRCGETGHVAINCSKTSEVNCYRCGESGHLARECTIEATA
# UniProt Q5VXU3: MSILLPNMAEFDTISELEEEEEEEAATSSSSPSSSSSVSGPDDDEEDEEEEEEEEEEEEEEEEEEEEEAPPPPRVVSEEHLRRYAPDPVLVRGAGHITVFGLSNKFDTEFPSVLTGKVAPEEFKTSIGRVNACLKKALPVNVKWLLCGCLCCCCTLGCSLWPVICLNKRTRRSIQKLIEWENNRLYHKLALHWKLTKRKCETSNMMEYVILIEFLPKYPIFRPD
# UniProt Q14677: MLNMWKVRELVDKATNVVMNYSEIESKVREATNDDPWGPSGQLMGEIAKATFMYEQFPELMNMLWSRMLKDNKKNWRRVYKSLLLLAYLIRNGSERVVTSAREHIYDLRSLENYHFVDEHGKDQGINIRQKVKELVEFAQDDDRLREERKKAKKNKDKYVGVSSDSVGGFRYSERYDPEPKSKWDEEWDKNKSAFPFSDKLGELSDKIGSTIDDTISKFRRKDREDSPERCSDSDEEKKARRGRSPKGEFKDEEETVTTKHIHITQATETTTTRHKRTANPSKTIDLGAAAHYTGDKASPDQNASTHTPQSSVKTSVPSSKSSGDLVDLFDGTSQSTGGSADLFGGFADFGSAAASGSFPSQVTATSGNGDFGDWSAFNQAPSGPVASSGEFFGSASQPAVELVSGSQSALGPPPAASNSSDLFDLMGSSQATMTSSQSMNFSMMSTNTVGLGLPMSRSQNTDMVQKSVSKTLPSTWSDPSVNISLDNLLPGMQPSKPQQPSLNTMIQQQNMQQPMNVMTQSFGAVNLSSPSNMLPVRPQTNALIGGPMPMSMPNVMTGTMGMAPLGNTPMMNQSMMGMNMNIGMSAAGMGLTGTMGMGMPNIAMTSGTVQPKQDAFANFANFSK
# UniProt Q96EP1: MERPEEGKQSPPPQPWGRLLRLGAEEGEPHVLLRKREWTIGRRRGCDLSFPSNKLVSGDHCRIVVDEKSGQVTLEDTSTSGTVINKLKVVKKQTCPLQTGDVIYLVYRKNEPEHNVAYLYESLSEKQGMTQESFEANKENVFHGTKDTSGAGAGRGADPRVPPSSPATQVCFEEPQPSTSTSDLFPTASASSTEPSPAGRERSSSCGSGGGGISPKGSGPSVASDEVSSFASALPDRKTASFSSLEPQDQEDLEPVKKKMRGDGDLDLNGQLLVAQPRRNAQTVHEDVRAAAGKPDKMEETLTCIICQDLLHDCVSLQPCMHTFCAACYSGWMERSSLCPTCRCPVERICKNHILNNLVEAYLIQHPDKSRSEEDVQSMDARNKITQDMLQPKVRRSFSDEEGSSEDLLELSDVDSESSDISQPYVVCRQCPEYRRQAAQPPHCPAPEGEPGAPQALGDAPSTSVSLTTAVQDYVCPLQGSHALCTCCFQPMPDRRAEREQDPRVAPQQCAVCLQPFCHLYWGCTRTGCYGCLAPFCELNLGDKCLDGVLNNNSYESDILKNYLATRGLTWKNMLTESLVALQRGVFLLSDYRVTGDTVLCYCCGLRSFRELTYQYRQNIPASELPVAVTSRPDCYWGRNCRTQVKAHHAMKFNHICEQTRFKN
# UniProt P09496: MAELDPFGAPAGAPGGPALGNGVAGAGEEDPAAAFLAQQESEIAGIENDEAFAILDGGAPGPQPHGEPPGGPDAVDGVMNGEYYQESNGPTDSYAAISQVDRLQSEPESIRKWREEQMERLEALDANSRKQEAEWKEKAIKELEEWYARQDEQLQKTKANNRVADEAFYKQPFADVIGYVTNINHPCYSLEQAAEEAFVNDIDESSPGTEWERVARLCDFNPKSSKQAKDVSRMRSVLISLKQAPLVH
# UniProt Q07065: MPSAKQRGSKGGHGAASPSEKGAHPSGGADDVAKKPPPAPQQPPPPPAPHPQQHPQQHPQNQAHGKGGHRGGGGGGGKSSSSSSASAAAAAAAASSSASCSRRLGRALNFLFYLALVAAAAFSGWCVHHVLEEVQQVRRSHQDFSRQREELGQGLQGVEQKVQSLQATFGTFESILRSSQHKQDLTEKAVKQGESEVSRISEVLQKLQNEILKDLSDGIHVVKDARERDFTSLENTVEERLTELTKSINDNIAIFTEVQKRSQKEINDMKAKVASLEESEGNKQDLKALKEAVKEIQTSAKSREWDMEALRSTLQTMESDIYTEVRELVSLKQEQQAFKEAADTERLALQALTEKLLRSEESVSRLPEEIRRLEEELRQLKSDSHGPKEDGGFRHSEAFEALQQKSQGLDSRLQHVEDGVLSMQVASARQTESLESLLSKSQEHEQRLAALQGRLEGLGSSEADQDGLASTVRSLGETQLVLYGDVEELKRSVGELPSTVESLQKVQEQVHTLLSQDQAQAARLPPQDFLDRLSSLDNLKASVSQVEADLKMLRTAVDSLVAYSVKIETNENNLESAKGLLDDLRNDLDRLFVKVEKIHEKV
# UniProt Q9NSE2: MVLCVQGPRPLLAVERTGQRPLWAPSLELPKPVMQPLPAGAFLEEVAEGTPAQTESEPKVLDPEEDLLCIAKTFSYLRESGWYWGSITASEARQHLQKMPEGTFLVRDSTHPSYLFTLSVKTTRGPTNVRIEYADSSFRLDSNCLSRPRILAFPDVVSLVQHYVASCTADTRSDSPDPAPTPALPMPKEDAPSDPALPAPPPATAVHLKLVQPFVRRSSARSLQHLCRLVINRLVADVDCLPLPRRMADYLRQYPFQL
# UniProt P49761: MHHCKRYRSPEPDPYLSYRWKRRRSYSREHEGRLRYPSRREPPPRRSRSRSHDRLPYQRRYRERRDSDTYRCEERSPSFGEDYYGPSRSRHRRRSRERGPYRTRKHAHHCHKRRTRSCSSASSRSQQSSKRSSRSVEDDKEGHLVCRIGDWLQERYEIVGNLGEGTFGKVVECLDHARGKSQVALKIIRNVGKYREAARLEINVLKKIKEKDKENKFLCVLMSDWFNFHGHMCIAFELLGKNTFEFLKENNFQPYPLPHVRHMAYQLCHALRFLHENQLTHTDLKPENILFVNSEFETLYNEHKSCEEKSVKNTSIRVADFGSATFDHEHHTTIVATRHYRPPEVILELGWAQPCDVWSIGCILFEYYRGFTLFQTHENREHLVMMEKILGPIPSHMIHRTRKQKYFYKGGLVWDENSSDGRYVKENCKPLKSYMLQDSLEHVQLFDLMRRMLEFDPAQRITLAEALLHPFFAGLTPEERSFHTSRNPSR
# What was measured:
# Assay in all cases: log2 fold change, soluble protein after heating vs DMSO (PISA); higher = thermal stabilisation; K562 lysate, 10 uM; active = over 0.2 and 3.5 SD of the protein, either way, in both replicates (recomputed)
# Tubastatin A = compound: CN1CCc2c(c3ccccc3n2Cc2ccc(C(=O)NO)cc2)C1 [Tubastatin A]
# Method in brief: (§1)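 Quantification was by TMTpro 16plex LC-MS/MS with equalised channel sums, applied to the supernatant after 21,000xg for 90 min. Samples were crude K562 extract at 1 mg/mL protein in PBS pH 7.4 with 1 mM MgCl2, treated with 10 μM compound for 30 min, heated for 3 min across 48°C-58°C, pooled and brought to 0.5% NP-40 at 4°C. Values are log-two fold changes in thermal stability relative to solvent controls, from duplicates.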
# [1] = compound: CNC(=O)C1=CC=CC=C1NC2=NC(=NC=C2Cl)NC3=C(C=C(C=C3)N4CCOCC4)OC
# Method in brief: as §1
# defactinib = compound: CNC(=O)c1ccc(Nc2ncc(C(F)(F)F)c(NCc3nccnc3N(C)S(C)(=O)=O)n2)cc1 [defactinib]
# Method in brief: as §1
# [2] = compound: CNc1nc(-c2ccc3c(N)n[nH]c3c2)cc(N2C[C@@H](C(=O)NC3CCCCC3)CC[C@H]2C)n1
# Method in brief: as §1
# encorafenib = compound: COC(=O)N[C@@H](C)CNc1nccc(-c2cn(C(C)C)nc2-c2cc(Cl)cc(NS(C)(=O)=O)c2F)n1 [encorafenib]
# Method in brief: as §1
# [3] = compound: COC(=O)[C@H](CCSC)NC(=O)C1=C(C=C(C=C1)NC[C@H](CS)N)C2=CC=CC=C2
# Method in brief: as §1
# alisertib = compound: COc1cc(Nc2ncc3c(n2)-c2ccc(Cl)cc2C(c2c(F)cccc2OC)=NC3)ccc1C(=O)O [alisertib]
# Method in brief: as §1
# gefitinib = compound: COc1cc2ncnc(Nc3ccc(F)c(Cl)c3)c2cc1OCCCN1CCOCC1 [gefitinib]
# Method in brief: as §1
# alvocidib = compound: CN1CC[C@H](c2c(O)cc(O)c3c(=O)cc(-c4ccccc4Cl)oc23)[C@H](O)C1 [alvocidib]
# Method in brief: as §1
# [4] = compound: COc1cc2nc(-c3cc(F)ccc3O)nc(N[C@@H]3CNC[C@H]3C(C)(C)O)c2cc1OC
# Method in brief: as §1
Target,log2 fold change (Tubastatin A),log2 fold change [1],log2 fold change (defactinib),log2 fold change [2],log2 fold change (encorafenib),log2 fold change [3],log2 fold change (alisertib),log2 fold change (gefitinib),log2 fold change (alvocidib),log2 fold change [4]
CLN6 (UniProt Q9NWW5),inactive: 0.03,inactive: 0.018,inactive: -0.07,inactive: 0.058,inactive: 0.041,inactive: -0.021,inactive: -0.029,inactive: -0.037,,
CKS2 (UniProt P33552),,,inactive: -0.009,,inactive: 0.003,inactive: -0.113,inactive: 0.081,inactive: -0.016,inactive: 0.081,
CLUL1 (UniProt Q15846),,,inactive: -0.108,,,,inactive: -0.049,inactive: 0.058,inactive: -0.02,inactive: 0.07
CLK1 isoform 3 (UniProt P49759),inactive: 0.168,inactive: -0.063,,,inactive: -0.143,inactive: 0.126,inactive: -0.071,inactive: -0.025,,inactive: 0.237
CIAO2B (UniProt Q9Y3D0),inactive: -0.016,inactive: 0.037,inactive: 0.029,inactive: 0.087,inactive: 0.015,inactive: -0.015,inactive: -0.03,inactive: -0.112,,inactive: 0.023
CLEC11A (UniProt Q9Y240),,inactive: 0.146,,,inactive: 0.085,inactive: 0.05,,,,inactive: -0.029
CIR1 (UniProt Q86X95),inactive: 0.178,,,inactive: 0.103,inactive: -0.006,inactive: -0.012,,,,inactive: -0.01
CHTF18 (UniProt Q8WVB6),inactive: -0.214,inactive: 0.126,,inactive: 0,inactive: 0.097,inactive: 0.039,inactive: -0.03,inactive: 0.001,,inactive: 0.089
CITED2 (UniProt Q99967),,inactive: 0.046,,inactive: -0.149,,,,,,
CHST2 (UniProt Q9Y4C5),,,,inactive: 0.089,,,,,inactive: -0.032,inactive: -0.111
CHPF2 (UniProt Q9P2E5),inactive: 0.005,inactive: 0.002,inactive: -0.048,inactive: -0.045,inactive: 0.077,inactive: 0.021,,,,
CNBP (UniProt P62633),,inactive: 0.044,,,,,,,,inactive: -0.07
CLEC16A isoform 2 (UniProt Q2KHT3),inactive: -0.035,inactive: -0.013,,inactive: -0.067,,,inactive: -0.098,inactive: 0.188,,inactive: 0.016
"CHD4, A0A2R8Y521",inactive: -0.117,,,inactive: 0.155,inactive: 0.046,inactive: -0.086,inactive: 0.133,inactive: 0.167,,inactive: -0.454
CHIC1 (UniProt Q5VXU3),,,inactive: 0.017,,,,,,inactive: 0.066,
CLINT1 (UniProt Q14677),,,inactive: 0.013,inactive: 0.234,inactive: 0.199,inactive: 0,,,inactive: -0.077,
CHFR (UniProt Q96EP1),inactive: -0.052,inactive: 0.004,active: -0.61,inactive: -0.032,inactive: 0.063,inactive: -0.084,inactive: 0.033,inactive: -0.03,,inactive: 0.008
CLTA isoform 2 (UniProt P09496),inactive: 0.028,inactive: -0.004,inactive: 0.111,inactive: 0.004,inactive: -0.205,inactive: 0.129,inactive: 0.034,inactive: -0.014,,inactive: 0.011
CLCN6 isoform 5 (UniProt P51797),inactive: -0.059,inactive: -0.02,inactive: -0.101,inactive: 0.038,inactive: -0.02,inactive: 0.034,,,,inactive: 0.038
CLK2 (UniProt P49760),,,,inactive: 0.061,,,,,,inactive: -0.214
CKAP4 (UniProt Q07065),,,,inactive: -0.07,inactive: -0.209,inactive: 0.248,,,inactive: 0.33,inactive: 0.018
CLDN7 (UniProt O95471),,,,,inactive: 0.126,inactive: 0.057,,,,
CMTR2 (UniProt Q8IYT2),inactive: 0.015,,,,,,inactive: 0.024,inactive: 0.032,,inactive: -0.101
CLUAP1 (UniProt I3L2E1),inactive: 0.051,inactive: 0.099,inactive: -0.744,,inactive: -0.382,inactive: 0.142,inactive: -0.19,inactive: -0.168,,inactive: 0.024
CMC4 (UniProt P56277),,inactive: 0.029,,,,,inactive: -0.063,inactive: 0.341,,inactive: -0.02
CISH isoform 3 (UniProt Q9NSE2),,,inactive: 0.084,,,,,,,
CKMT2 (UniProt D6RHV3),,,,,,,,,,inactive: 0.088
CLK3 (UniProt P49761),,inactive: 0.032,inactive: -0.004,inactive: -0.144,inactive: -0.032,inactive: 0.122,,,,inactive: -0.003

# Some of the entries above, reformatted.
Target	log2 fold change (Tubastatin A)	log2 fold change [1]	log2 fold change (defactinib)	log2 fold change [2]	log2 fold change (encorafenib)	log2 fold change [3]	log2 fold change (alisertib)	log2 fold change (gefitinib)	log2 fold change (alvocidib)	log2 fold change [4]
CHIC1 (UniProt Q5VXU3)			inactive: 0.017						inactive: 0.066	
CLINT1 (UniProt Q14677)			inactive: 0.013	inactive: 0.234	inactive: 0.199	inactive: 0			inactive: -0.077	

# Reference: the supplement of paper PMC10849652
